Data taken from ChEMBL document CHEMBL4406832, “Discovery of novel series of 2-substituted benzo[d]oxazol-5-amine derivatives as multi-target directed ligands for the treatment of Alzheimer's disease” (Eur J Med Chem, 2019).

Test: Permeability of the compound in pH 7.4 PBS buffer incubated for 18 hrs by PAMPA-BBB assay

SMILES: COc1cc2c(cc1OC)C(=O)C(CC1CCN(Cc3ccccc3)CC1)C2 (stereo unspecified) [DONEPEZIL]
- Papp at 18 h: 8.32 ×10⁻⁶ cm/s
